Experimental data from patent publication US5449592A, “Silver halide color photographic light sensitive material for color proof and method for preparing color proof using the same” (Konica Corporation, priority 1988, dated 1995).

Test: Gamma variation ratio of yellow couplers (inhibition of color development)
Conditions: relative to standard sample with coupler YS
Description: The gamma variation ratio is determined by the following method.
(1) Preparation of the standard sample
Into 150 ml of ethyl acetate 60 g of yellow coupler represented by the following formula (YS) and 20 g of tricresil phosphate are aded and dissolved. The solution is mixed with 1 liter of 5% aqueous solution of gelatin containing 10 ml of 5% aqueous solution of Alkanol B (alkyl naphthalenesulfonate, made by du Pont Co.) and dispersed for making a dispersion using an ultrasonic disperser. The dispersion thus obtained is added to a silver iodobromide emulsion containing 6 mol % of silver iodide so that the amount of the yellow coupler is 0.3 mol per mol of silver in the emulsion. To the emulsion 1.2 g of 1,2-bis(vinylsulfonyl)ethane is added per gram of gelatin as a hardner. The emulsion is coated on a transparent cellulose acetate film in an amount of 2 g per sq. meter in terms of silver.
The processed samples each is subjected to densitometry with red light by Konica Densitometer PDA-65 and a chracteriastics curve thereof is drawn. The gamma value is determined by the gradient of the line connecting the points of the density of 0.3 and 0.8 on the characteristic curve. The gamma variation ratio γv is defined by the following equation, in which γt is the gamma value of the sample containing the coupler to be tested and γs is the gamma value of the standard sample.
The yellow coupler used in the invention should have a γv value of not more than 0.1, preferably not more than 0.02.
Samples of positive light-sensitive material No. 41 to 49 were prepared in the same manner as in Sample 18 of Example 2 of the specification except that yellow coupler Y-8 was replaced by the following comparative or inventive couplers. On the other hand, the gamma variation rate γv of the couplers were determined the foregoing method.

CCC(C)(C)c1ccc(OCCCC(=O)Nc2ccc(Cl)c(NC(=O)C(C(=O)C(C)(C)C)n3nnc4ccc(C(=O)Oc5ccccc5)cc43)c2)c(C(C)(C)CC)c1 (centres unmarked) [CY-1, reference compound]
gamma variation ratio γv: -0.30

CCC(C)(C)c1ccc(OCCCC(=O)Nc2ccc(Cl)c(NC(=O)C(C(=O)C(C)(C)C)n3c(=O)n(Cc4ccccc4)n(-c4ccccc4)c3=O)c2)c(C(C)(C)CC)c1 (centres unmarked) [Y-1]
gamma variation ratio γv: 0

CCC(C)(C)c1ccc(OCCCC(=O)Nc2ccc(Cl)c(NC(=O)C(Oc3ccc(S(=O)(=O)c4ccc(OCc5ccccc5)cc4)cc3)C(=O)C(C)(C)C)c2)c(C(C)(C)CC)c1 (centres unmarked) [Y-8]
gamma variation ratio γv: 0

CCC(C)(C)c1ccc(OCCCC(=O)Nc2ccc(Cl)c(NC(=O)C(Sc3nnnn3-c3ccc(C(=O)O)cc3)C(=O)C(C)(C)C)c2)c(C(C)(C)CC)c1 (centres unmarked) [Y-61]
gamma variation ratio γv: 0

CCC(C)(C)c1ccc(OCCCC(=O)Nc2ccc(Cl)c(NC(=O)C(C(=O)C(C)(C)C)n3c(SCC(=O)O)nc4ccccc43)c2)c(C(C)(C)CC)c1 (centres unmarked) [Y-62]
gamma variation ratio γv: 0

CCC(C)(C)c1ccc(OCCCC(=O)Nc2ccc(Cl)c(NC(=O)C(OCC(=O)O)C(=O)C(C)(C)C)c2)c(C(C)(C)CC)c1 (centres unmarked) [Y-63]
gamma variation ratio γv: 0

CCC(C)(C)c1ccc(OCCCC(=O)Nc2ccc(Cl)c(NC(=O)C(SCC(=O)O)C(=O)C(C)(C)C)c2)c(C(C)(C)CC)c1 (centres unmarked) [Y-64]
gamma variation ratio γv: 0

CCC(C)(C)c1ccc(OCCCC(=O)Nc2ccc(Cl)c(NC(=O)C(C(=O)C(C)(C)C)n3cccn3)c2)c(C(C)(C)CC)c1 (centres unmarked) [Y-65]
gamma variation ratio γv: 0
